PubChem BioAssay AID1745845 (National Center for Advancing Translational Sciences (NCATS), 2022)
The campaign covered roughly 360,000 compounds. About 2,600 (0.72%) were called active. Listed are the inconclusive results; actives and inactives stand elsewhere. Calls come from the whole dose curve; as a rule, active = well fitted inhibition curve with a large enough effect; inconclusive = small, poorly fitted or top-dose-only effect; inactive = no such curve, though single readings can be large or run the other way.

assay: Primary qHTS for Inhibitors of ATXN expression; conditions: HEK-293 ATXN2-luciferase reporter, luminescence, 24 h; note: nearly all actives have a fitted effect of over 55% in size
Potency is the fitted concentration of half-maximal effect.

Structure (SMILES)	Potency
CC(C)(C)c1ccc(OP(C)(=O)Nc2ccc(SC(F)(F)F)cc2)cc1 (stereo not given)	inconclusive: 39.8 µM
O=[N+]([O-])c1cc([N+](=O)[O-])c(Nc2cccnc2)c([N+](=O)[O-])c1	inconclusive: 25.1 µM
COc1ccc(OP(C)(=O)Nc2ccc(SC(F)(F)F)cc2)cc1 (stereo not given)	inconclusive: 18.9 µM
CC(C)c1ccc(OP(C)(=O)Nc2ccc(SC(F)(F)F)cc2)cc1 (stereo not given)	inconclusive: 39.8 µM
O=[N+]([O-])c1cc([N+](=O)[O-])c(Nc2ccccn2)c([N+](=O)[O-])c1	inconclusive: 37.7 µM
